# Source: PubChem BioAssay AID1259415 (National Center for Advancing Translational Sciences (NCATS), 2018)
# In all, about 410,000 compounds went through this assay and about 18,000 (4.4%) were called active. Inconclusive means that the source gave no clear call. Such entries were picked first, then a sample of the others. Rule as the data show it: active = activity change below about -60%; inconclusive = no clear call, values can overlap the other calls; inactive = above about -39%.
# Assay: qHTS Assay for inhibitors of the human cytomegalovirus (HCMV)
# Settings: HFF cells, HCMV-luciferase reporter, 72 h; at 57.5 µM; hits give low values
# Method in brief: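 Cell-based, HFFs, 1000 cells/well, 16 h 37C; cpds in DMSO + HCMV-luc, MOI 1 PFU/cell; 72 h 37C; OneGlo luminescence after 5 min RT; norm. to buffer vs Salinomycin 10uM.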
# % is scaled to controls: 0 for no effect and ±100 for the full control effect.
row,SMILES,"activity change, negative = inhibition"
1,O=C(NNc1cccc(Cl)n1)C(F)(F)F,inactive: -1.87%
2,CC(C)Oc1ncnc2c1[nH]c1ccccc12,inconclusive: -40.3%
3,COc1ccc(C(NC(=O)C(C)C)c2c(O)ccc3ccccc23)cc1 (centres undefined),inactive: -30.8%
4,COC(=O)c1cc(C(=O)c2cccc(Cl)c2Cl)cn1C,inconclusive: -42.9%
5,CSCCC(NS(=O)(=O)c1ccc(Br)cc1)C(=O)OCC(=O)NC1CC1 (centres undefined),active: -64.9%
6,Cc1ccccc1Nc1ncc(C#N)c(N)n1,inactive: 28.6%
7,CCOC(=O)N1CCC(NS(=O)(=O)c2cc(Br)cc3c2N(C(=O)CC)CC3)CC1,active: -105%
8,CCc1nc(SCC(=O)N2CCCCCC2)c2c(=O)n(C)c(=O)n(C)c2n1,inconclusive: -42.7%
9,COc1ccc(CNC(=O)CN2C(=O)COc3ccc(S(=O)(=O)N4CCC(C)CC4)cc32)cc1,inconclusive: -47.5%
10,Cc1ccc(NC(=O)Cn2c(=O)n(CCCCC(=O)NCCc3ccc(Cl)cc3)c(=O)c3ccccc32)cc1,inconclusive: -48.5%
11,O=C(CSc1nnc(NC(=O)c2c(F)cccc2Cl)s1)Nc1ccccc1F,inactive: 1.2%
12,CN(C)c1nc(N2CCN(c3ccccc3)CC2)c(C#N)c(=O)o1,inconclusive: -44.2%
13,O=C(CSC1=NCCS1)Nc1ccnc2ccccc12,active: -73.3%
14,COCCCN1C(=O)c2[nH]nc(-c3ccccc3O)c2C1c1ccc(OCc2ccccc2)cc1 (centres undefined),active: -95.8%
15,Cc1ccccc1OCC(O)COc1ccccc1C,active: -100%
16,CCOC(=O)c1c(-c2ccc(C)cc2)csc1NC(=S)NC(=O)c1ccccc1,inconclusive: -55.1%
17,CC(Oc1ccc(F)cc1)c1nnc(SCC(=O)N(c2ccccc2)C2CCS(=O)(=O)C2)o1 (centres undefined),inconclusive: -57.6%
18,CC(C)C(=O)N1CCN(c2ccccc2NC(=O)COc2ccccc2)CC1,inconclusive: -55.7%
19,COc1ccccc1-c1nnc2sc(-c3ccc(N(C)C)cc3)nn12,active: -92.9%
20,CCNC(=O)c1ccc2c(c1)C1C3CCC(C3)C1C(c1ccccc1)N2 (centres undefined),active: -62.6%
21,CCCS(=O)(=O)N1CCCC(C(=O)Oc2ccc(C)c(C)c2)C1 (centres undefined),inconclusive: -41.7%
22,COc1ccc(NC(=O)N(C)C[C@H]2Oc3ccc(NS(=O)(=O)c4ccccc4)cc3C(=O)N([C@H](C)CO)C[C@@H]2C)cc1,inconclusive: -53.8%
23,CCOc1ccc(-n2cnc3sc4c(c3c2=O)CCCC4)cc1,inconclusive: -51.6%
24,COc1ccccc1NC(=O)C1CCN(S(=O)(=O)c2ccc3[nH]c4c(c3c2)CCCCC4)CC1,inconclusive: 0%

# Taken from the results shown (six entries):
row,SMILES,"activity change, negative = inhibition"
11,O=C(CSc1nnc(NC(=O)c2c(F)cccc2Cl)s1)Nc1ccccc1F,inactive: 1.2%
12,CN(C)c1nc(N2CCN(c3ccccc3)CC2)c(C#N)c(=O)o1,inconclusive: -44.2%
13,O=C(CSC1=NCCS1)Nc1ccnc2ccccc12,active: -73.3%
14,COCCCN1C(=O)c2[nH]nc(-c3ccccc3O)c2C1c1ccc(OCc2ccccc2)cc1 (centres undefined),active: -95.8%
15,Cc1ccccc1OCC(O)COc1ccccc1C,active: -100%
16,CCOC(=O)c1c(-c2ccc(C)cc2)csc1NC(=S)NC(=O)c1ccccc1,inconclusive: -55.1%
